Measured values from PubChem BioAssay AID256 (DTP/NCI, 2004).
The list does not hold the whole screen: it gathers tests that were run many times, whatever their T/C, doses with no T/C, and many T/C values between a quarter and a half above the control. Further doses and runs are listed elsewhere. T/C: endpoint of the treated group in % of that of the vehicle group. Some doses have a count of surviving animals in place of a T/C: the source files T/C as zero there, which appears to mark a toxic dose or a test without result, not a measured value. Some survivor counts are full or nearly so, which does not show that the dose was tolerated: the source hardly ever lists a survival T/C far under the control, and the zero likely stands for such cases as well. Survivors were counted at the toxicity check, usually on the fifth day, unless a day is given; later deaths do not show. Schedule codes are those of the source, taken here to give the interval after Q, in days (D) or hours (H), and the number of doses after X. Some entries were tested several times; their values stand side by side, smallest first. Where survival is the endpoint, this PubChem deposit counts one and a half times the control or more as active, and values a quarter to a half above the control carry no call in these data; other NCI protocols may use other cut-offs. Some T/C values are followed by the survivors on the day toxicity was checked, most often the fifth; where none is given, no animal had died by that day.

System: CD2F1 mice, L1210 leukemia ip, survival T/C
Experiment: NCI In Vivo Anticancer Drug Screen. Data for tumor model L1210 Leukemia (intraperitoneal) in CD2F1 (CDF1) mice
Conditions: T/C endpoint: mean survival time, higher T/C = longer survival
Procedure, shortened: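 Each value reflects a quotient of treated over vehicle control outcomes in mice with a transplanted tumor.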

[1] = dose: 150.0 mg/kg/injection, schedule: Q01DX001 (ip), vehicle: saline
[2] = dose: 300.0 mg/kg/injection, schedule: Q01DX001 (ip), vehicle: saline
[3] = dose: 400.0 mg/kg/injection, schedule: Q04DX003 (ip), vehicle: saline with Tween-80
[4] = dose: 400.0 mg/kg/injection, schedule: Q01DX001 (ip), vehicle: saline with Tween-80
[5] = dose: 200.0 mg/kg/injection, schedule: Q01DX005 (ip), vehicle: water
[6] = dose: 400.0 mg/kg/injection, schedule: Q01DX005 (ip), vehicle: water
[7] = dose: 400.0 mg/kg/injection, schedule: Q04DX002 (ip), vehicle: saline with Tween-80
[8] = dose: 100.0 mg/kg/injection, schedule: Q01DX009 (ip), vehicle: saline with Tween-80
[9] = dose: 200.0 mg/kg/injection, schedule: Q01DX009 (ip), vehicle: saline with Tween-80
[10] = dose: 400.0 mg/kg/injection, schedule: Q01DX009 (ip), vehicle: saline with Tween-80
[11] = dose: 100.0 mg/kg/injection, schedule: Q04DX003 (ip), vehicle: saline
[12] = dose: 200.0 mg/kg/injection, schedule: Q04DX003 (ip), vehicle: saline
[13] = dose: 400.0 mg/kg/injection, schedule: Q04DX003 (ip), vehicle: saline
[14] = dose: 200.0 mg/kg/injection, schedule: Q04DX002 (ip), vehicle: saline with Tween-80
[15] = dose: 100.0 mg/kg/injection, schedule: Q01DX001 (ip), vehicle: saline with Tween-80
[16] = dose: 200.0 mg/kg/injection, schedule: Q01DX001 (ip), vehicle: saline with Tween-80
[17] = dose: 100.0 mg/kg/injection, schedule: Q01DX009 (ip), vehicle: Klucel (hydroxypropylcellulose) (HPC)
[18] = dose: 10.0 mg/kg/injection, schedule: Q01DX009 (ip), vehicle: saline

Question: Which survivor count (dose: 8.0 mg/kg/injection, schedule: Q01DX001 (ip), vehicle: saline) does the source give for `CO[C@H]1[C@H](O)[C@H](O[C@H]2CC[C@@]3(C)[C@H](CC[C@@H]4[C@@H]3CC[C@]3(C)[C@@H](C5=CC(=O)OC5)CC[C@]43O)C2)O[C@@H](C)[C@@H]1O` here?
Answer: 3 of 6

Question: And the survivor count (dose: 75.0 mg/kg/injection, schedule: Q01DX001 (ip), vehicle: saline)?
Answer: 0 of 6

Question: And the survivor count [1]?
Answer: 0 of 6

Question: And the survivor count [2]?
Answer: 0 of 6

Question: How did the survivor count [3] turn out when `O=C(O)/C=C/C(=O)Nc1cccc2ccccc12` was run?
Answer: 3 of 6

Question: Which survivor count [4] does the source give for `Cc1cccc(CC(F)F)c1` here?
Answer: 3 of 6

Question: `CSCCCCCCSC` was tested. Which survivor count [3] did it give?
Answer: 4 of 6

Question: `OCC1OC(n2ccc3c2ncn2ncnc32)C(O)C1O` (stereo not drawn) was tested. Which T/C (dose: 12.5 mg/kg/injection, schedule: Q01DX005 (ip), vehicle: water) did it give?
Answer: 127 % of control

Question: What about the T/C (dose: 25.0 mg/kg/injection, schedule: Q01DX005 (ip), vehicle: water) of the same compound?
Answer: 133 and 141 % of control

Question: And the survivor count (dose: 50.0 mg/kg/injection, schedule: Q01DX005 (ip), vehicle: water)?
Answer: 4 of 4

Question: What about the survivor count (dose: 100.0 mg/kg/injection, schedule: Q01DX005 (ip), vehicle: water) of the same compound?
Answer: 0 of 4 and 0 of 6

Question: What about the survivor count [5] of the same compound?
Answer: 0 of 4

Question: And the survivor count [6]?
Answer: 0 of 4

Question: How did the survivor count [5] turn out when `CNc1ncnc2c(C3OC(CO)C(O)C3O)[nH]nc12` (stereo not drawn) was run?
Answer: 1 of 6

Question: What about the survivor count [6] of the same compound?
Answer: 1 of 6

Question: What does the source list for `CN(C)CCc1ccc(O)cc1`?
Answer: survivor count (dose: 200.0 mg/kg/injection, schedule: Q01DX001 (ip), vehicle: saline): 2 of 6; survivor count (dose: 400.0 mg/kg/injection, schedule: Q01DX001 (ip), vehicle: saline): 0 of 6

Question: Which survivor count [7] does the source give for `CC1(C(=O)c2ccccc2)CC2C=CC1C2` (stereo not drawn) here?
Answer: 3 of 3

Question: With `COC(=O)N/N=C/C=C/c1ccccc1` as the compound, how does the survivor count [8] read?
Answer: 3 of 6

Question: What about the survivor count [9] of the same compound?
Answer: 0 of 6

Question: What about the survivor count [10] of the same compound?
Answer: 2 of 6

Question: `CC(=O)C(C(C)=O)C(=[C-]C(F)(F)F)C(F)(F)F.CC(=O)C(C(C)=O)C(=[C-]C(F)(F)F)C(F)(F)F.[Pd+2]` was tested. Which survivor count (dose: 25.0 mg/kg/injection, schedule: Q04DX003 (ip), vehicle: distilled water + Tween-80) did it give?
Answer: 2 of 6

Question: What about the survivor count (dose: 50.0 mg/kg/injection, schedule: Q04DX003 (ip), vehicle: distilled water + Tween-80) of the same compound?
Answer: 0 of 6

Question: What about the survivor count (dose: 100.0 mg/kg/injection, schedule: Q04DX003 (ip), vehicle: distilled water + Tween-80) of the same compound?
Answer: 0 of 6

Question: What about the survivor count (dose: 200.0 mg/kg/injection, schedule: Q04DX003 (ip), vehicle: distilled water + Tween-80) of the same compound?
Answer: 0 of 6

Question: How did the survivor count [1] turn out when `FC1(F)C(Cl)=[C]([Hg][C]2=C(Cl)C(F)(F)C(F)(F)C2(F)F)C(F)(F)C1(F)F` was run?
Answer: 3 of 6

Question: And the survivor count [2]?
Answer: 0 of 6

Question: Which survivor count [11] does the source give for `CC(CN)OCc1ccccc1` (stereo not drawn) here?
Answer: 6 of 6

Question: And the survivor count [12]?
Answer: 1 of 6

Question: And the survivor count [13]?
Answer: 0 of 6

Question: Which results are given for `O=C(CSCCN1CCCCC1)N1c2ccccc2Sc2ccccc21`?
Answer: survivor count [11]: 0 of 6; survivor count [12]: 0 of 6; survivor count [13]: 0 of 6

Question: For `COC1OC2COc3ccccc3OC2C(N)C1N(C)c1ccccc1` (stereo not drawn), which survivor count (dose: 300.0 mg/kg/injection, schedule: Q01DX001 (ip), vehicle: saline with Tween-80) is on record?
Answer: 3 of 6

Question: For `CCCCSCCN`, which survivor count [14] is on record?
Answer: 0 of 3

Question: `O=C(Nc1cc(Cl)ccc1Cl)c1ccc(Cl)cc1Cl` was tested. Which survivor count [3] did it give?
Answer: 5 of 6

Question: Which results are given for `CN(C)C(=O)On1cccc1C#N`?
Answer: survivor count [15]: 0 of 3; survivor count [16]: 0 of 3; survivor count [4]: 0 of 3

Question: What does the source list for `Cl/C(=N\Nc1ccccc1)c1ccccc1`?
Answer: survivor count [17]: 0 of 6; survivor count (dose: 200.0 mg/kg/injection, schedule: Q01DX009 (ip), vehicle: Klucel (hydroxypropylcellulose) (HPC)): 1 of 6; survivor count (dose: 400.0 mg/kg/injection, schedule: Q01DX009 (ip), vehicle: Klucel (hydroxypropylcellulose) (HPC)): 0 of 6

Question: `CCC(C)CC(C)C1=NC(C)(C)CC(C)O1` (stereo not drawn) was tested. Which survivor count [4] did it give?
Answer: 0 of 6

Question: What does the source list for `O=S(=O)([O-])O.O=S(O)S(=O)O.[Co+3].[NH2-].[NH2-].[NH2-].[NH2-].[NH2-]`?
Answer: survivor count [14]: 1 of 3; survivor count [7]: 0 of 3

Question: What does the source list for `O=[N+]([O-])/C=C\c1ccccc1`?
Answer: survivor count [8]: 3 of 6; survivor count [9]: 0 of 6; survivor count [10]: 0 of 6

Question: How did the survivor count [17] turn out when `CC(=O)OC1C(O)C(OC(=O)c2ccccc2)C(OC(C)=O)C(OC(C)=O)C1OC(C)=O` (stereo not drawn) was run?
Answer: 6 of 6

Question: What does the source list for `CCC(N)Cc1ccc2c(c1)OCO2` (stereo not drawn)?
Answer: survivor count (dose: 200.0 mg/kg/injection, schedule: Q04DX003 (ip), vehicle: saline with Tween-80): 0 of 6; survivor count [3]: 0 of 6

Question: Which results are given for `CC(C)CC(NC(=O)CF)C(=O)O` (stereo not drawn)?
Answer: T/C [18]: 132 % of control [5 of 6 alive]; survivor count [18]: 0 of 6

Question: `Cc1cc(=O)c(C(=O)NC/C(C#N)=C\c2ccccc2)c(C)[nH]1` was tested. Which survivor count [14] did it give?
Answer: 1 of 3

Question: With `O=C(O)c1ccc(C(=O)O)o1.[NH-]C1CCCCC1[NH-].[Pt+2]` as the compound, how does the T/C (dose: 5.0 mg/kg/injection, schedule: Q04DX003 (ip), vehicle: dextrose) read?
Answer: 129 % of control

Question: And the T/C (dose: 20.0 mg/kg/injection, schedule: Q04DX003 (ip), vehicle: dextrose)?
Answer: 127 % of control

Question: For `CC[C@@]1(O)C(=O)OCc2c1cc1n(c2=O)Cc2cc3c(OC)cccc3nc2-1`, which T/C (dose: 0.5 mg/kg/injection, schedule: Q01DX009 (ip), vehicle: saline with Tween-80) is on record?
Answer: 130 % of control

Question: And the T/C (dose: 1.0 mg/kg/injection, schedule: Q01DX009 (ip), vehicle: saline)?
Answer: 136 % of control

Question: What about the T/C (dose: 1.5 mg/kg/injection, schedule: Q01DX009 (ip), vehicle: saline) of the same compound?
Answer: 143 % of control

Question: And the T/C (dose: 1.9 mg/kg/injection, schedule: Q04DX003 (ip), vehicle: water)?
Answer: 131 % of control

Question: And the survivor count (dose: 6.25 mg/kg/injection, schedule: Q01DX009 (ip), vehicle: saline with Tween-80)?
Answer: 5 of 6

Question: What about the survivor count (dose: 12.5 mg/kg/injection, schedule: Q01DX009 (ip), vehicle: saline with Tween-80) of the same compound?
Answer: 4 of 6

Question: What about the survivor count (dose: 15.0 mg/kg/injection, schedule: Q04DX003 (ip), vehicle: water) of the same compound?
Answer: 6 of 6

Question: And the survivor count (dose: 16.0 mg/kg/injection, schedule: Q04DX003 (ip), vehicle: other)?
Answer: 4 of 6

Question: What about the survivor count (dose: 25.0 mg/kg/injection, schedule: Q01DX009 (ip), vehicle: saline with Tween-80) of the same compound?
Answer: 0 of 6

Question: And the survivor count (dose: 30.0 mg/kg/injection, schedule: Q04DX003 (ip), vehicle: water)?
Answer: 3 of 6

Question: And the survivor count (dose: 50.0 mg/kg/injection, schedule: Q01DX009 (ip), vehicle: saline with Tween-80)?
Answer: 0 of 6

Question: For `O=C(O)c1sc(C(=O)O)c(O)c1O`, which survivor count [15] is on record?
Answer: 1 of 3

Question: What about the survivor count [16] of the same compound?
Answer: 1 of 3

Question: And the survivor count [4]?
Answer: 0 of 3

Question: How did the survivor count (dose: 400.0 mg/kg/injection, schedule: Q04DX002 (ip), vehicle: saline) turn out when `O=c1[nH]cnc2c1ncn2C1CC(CO)C(O)OC1O` (stereo not drawn) was run?
Answer: 0 of 3

Question: How did the survivor count (dose: 200.0 mg/kg/injection, schedule: Q04DX003 (ip), vehicle: acetone) turn out when `c1ccc2c(c1)OP(OP1Oc3ccccc3O1)O2` was run?
Answer: 3 of 6

Question: What about the survivor count (dose: 400.0 mg/kg/injection, schedule: Q04DX003 (ip), vehicle: acetone) of the same compound?
Answer: 0 of 6
